Measurements reported in patent US20220125874A1.
No constants are given. Whether binding was seen depends on the method and setting. Binding seen in cells or lysates may run through a third protein. Some entries that bind do so weakly or less than the wild type.

The chains behind the UniProt entries cited, without tags or fusion partners.
UniProt P29351: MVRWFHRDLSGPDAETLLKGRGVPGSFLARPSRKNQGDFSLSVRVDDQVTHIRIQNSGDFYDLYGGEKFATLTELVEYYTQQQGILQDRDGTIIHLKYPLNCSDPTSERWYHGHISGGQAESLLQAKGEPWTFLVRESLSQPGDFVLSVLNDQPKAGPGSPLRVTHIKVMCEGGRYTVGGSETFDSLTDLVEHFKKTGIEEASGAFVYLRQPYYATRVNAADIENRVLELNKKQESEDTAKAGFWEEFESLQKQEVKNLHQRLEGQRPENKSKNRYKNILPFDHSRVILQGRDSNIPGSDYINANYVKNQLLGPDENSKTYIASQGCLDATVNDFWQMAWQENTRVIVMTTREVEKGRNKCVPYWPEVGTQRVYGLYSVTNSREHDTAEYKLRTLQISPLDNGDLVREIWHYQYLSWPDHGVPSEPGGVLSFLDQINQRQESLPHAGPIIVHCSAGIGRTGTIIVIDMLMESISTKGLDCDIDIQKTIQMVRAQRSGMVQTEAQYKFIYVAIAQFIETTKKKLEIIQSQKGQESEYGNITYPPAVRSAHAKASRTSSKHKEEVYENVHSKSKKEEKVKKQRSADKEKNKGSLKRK

Biological target: T1, Siglec G (mouse, in spleen cells of CD24-deficient mice) (mouse) (UniProt Q80ZE3)
T1 sequence (tyrosine phosphorylated after CD24Fc stimulation (sites not stated), looked up): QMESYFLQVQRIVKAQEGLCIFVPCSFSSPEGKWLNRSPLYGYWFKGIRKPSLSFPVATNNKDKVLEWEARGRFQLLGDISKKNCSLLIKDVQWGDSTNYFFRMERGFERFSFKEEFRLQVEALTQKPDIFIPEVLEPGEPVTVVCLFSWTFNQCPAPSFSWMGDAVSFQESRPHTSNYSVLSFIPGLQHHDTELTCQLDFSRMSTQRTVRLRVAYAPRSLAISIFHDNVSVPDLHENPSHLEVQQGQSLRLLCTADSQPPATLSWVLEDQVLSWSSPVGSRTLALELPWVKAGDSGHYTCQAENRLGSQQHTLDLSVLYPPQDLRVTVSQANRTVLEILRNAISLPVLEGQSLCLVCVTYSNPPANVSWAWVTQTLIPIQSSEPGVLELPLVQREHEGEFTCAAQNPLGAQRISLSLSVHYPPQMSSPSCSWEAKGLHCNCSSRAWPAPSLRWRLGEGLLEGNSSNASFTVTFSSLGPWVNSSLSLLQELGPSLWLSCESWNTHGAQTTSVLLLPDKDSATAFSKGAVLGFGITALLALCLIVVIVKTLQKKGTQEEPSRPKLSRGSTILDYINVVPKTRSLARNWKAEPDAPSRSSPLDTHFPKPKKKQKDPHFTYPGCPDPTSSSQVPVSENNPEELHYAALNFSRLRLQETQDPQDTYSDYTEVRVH
Assay: co-immunoprecipitation with anti-Siglec G antisera from spleen cell lysate, Western blot

In the case of “SHP-1 (from UniProt P29351 1-595) (enzyme)”, the binding is reported as “binds”.
